Results are given in words; binding and its absence hold for the method and conditions named. Some results given as binding are weak or reduced against the parent protein; the word gives no strength.
Each substance was assayed against T1, MutS (UniProt P23909) (assay: BLI; streptavidin biosensors loaded with a 70 bp end-blocked biotinylated DNA with a single mismatch; 18.75-150 nM MutL with 100 nM MutS in solution; 25 mM HEPES pH 7.5, 150 mM NaCl, 5 mM MgCl2, 2 mM DTT, 0.5 mg/ml BSA, 0.01% Tween 20, 2 mM ATP; MutS-MutL complexes form on the DNA; both purified).
T1 sequence: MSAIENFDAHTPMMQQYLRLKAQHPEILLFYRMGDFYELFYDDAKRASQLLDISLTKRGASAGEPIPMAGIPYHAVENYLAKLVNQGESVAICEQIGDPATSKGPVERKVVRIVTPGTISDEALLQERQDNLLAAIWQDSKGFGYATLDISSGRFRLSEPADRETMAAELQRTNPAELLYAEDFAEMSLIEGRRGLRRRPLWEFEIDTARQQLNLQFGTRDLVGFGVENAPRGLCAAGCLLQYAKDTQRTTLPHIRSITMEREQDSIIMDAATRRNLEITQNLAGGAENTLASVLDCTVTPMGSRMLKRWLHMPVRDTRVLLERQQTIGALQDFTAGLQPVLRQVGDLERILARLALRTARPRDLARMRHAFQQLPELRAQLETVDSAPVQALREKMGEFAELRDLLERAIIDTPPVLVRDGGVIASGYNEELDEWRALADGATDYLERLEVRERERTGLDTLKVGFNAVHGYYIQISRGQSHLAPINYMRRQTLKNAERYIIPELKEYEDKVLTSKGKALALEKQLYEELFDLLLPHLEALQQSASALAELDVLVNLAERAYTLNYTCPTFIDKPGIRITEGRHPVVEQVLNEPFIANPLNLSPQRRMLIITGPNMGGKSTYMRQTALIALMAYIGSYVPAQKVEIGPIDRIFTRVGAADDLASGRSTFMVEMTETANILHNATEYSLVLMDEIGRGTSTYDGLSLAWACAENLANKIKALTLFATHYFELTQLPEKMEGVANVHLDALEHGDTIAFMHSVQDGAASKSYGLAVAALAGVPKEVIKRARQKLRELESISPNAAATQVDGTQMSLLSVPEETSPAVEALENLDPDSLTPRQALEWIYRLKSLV

Amino acid sequences for entries named in this document (tags omitted). A change or cut given only in a name is not applied to a line headed by its entry.
UniProt P23367: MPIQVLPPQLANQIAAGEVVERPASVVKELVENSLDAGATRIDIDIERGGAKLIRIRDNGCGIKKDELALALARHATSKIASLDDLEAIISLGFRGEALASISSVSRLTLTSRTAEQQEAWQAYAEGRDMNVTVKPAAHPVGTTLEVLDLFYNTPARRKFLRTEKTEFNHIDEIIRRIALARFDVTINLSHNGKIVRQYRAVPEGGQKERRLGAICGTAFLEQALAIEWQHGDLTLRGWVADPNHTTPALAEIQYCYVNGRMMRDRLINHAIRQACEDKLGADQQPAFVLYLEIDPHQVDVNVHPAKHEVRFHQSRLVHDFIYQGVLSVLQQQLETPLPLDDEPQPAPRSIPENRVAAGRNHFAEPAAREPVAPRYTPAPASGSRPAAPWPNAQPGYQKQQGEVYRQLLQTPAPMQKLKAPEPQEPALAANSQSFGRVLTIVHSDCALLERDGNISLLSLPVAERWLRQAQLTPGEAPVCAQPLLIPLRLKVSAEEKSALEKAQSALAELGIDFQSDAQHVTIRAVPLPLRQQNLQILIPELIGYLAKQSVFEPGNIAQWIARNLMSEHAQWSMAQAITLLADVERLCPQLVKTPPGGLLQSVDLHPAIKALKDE

Row | binding | Substance
1 | binds | MutL^H270A (from UniProt P23367 1-615)
2 | binds | MutL^WT (Escherichia coli MutL protein, wild type) (from UniProt P23367 1-615)
3 | binds | MutL^H270A+H319A (from UniProt P23367 1-615)
4 | binds | MutL^H319A (from UniProt P23367 1-615)

From article PMC9226502
